Experimental data: PubChem BioAssay AID743121 (NCATS, 2013)
In all, the deposit lists about 26,000 reagents; this is a random part of them. Of all reagents, 167 (0.63%) were called active. 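Calls are per gene from RSA p-values that are not deposited; an individual active-marked siRNA can sensitise only weakly.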 The numbers tell different reagents against one gene apart. Reagent sequences are not shown.

Assay: 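Partners whose loss is lethal together with topoisomerase I blockade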 (primary screen)
Cell system: MDA-MB-231 cells, a human breast cancer line
Reagent: single siRNA against human genes, 20 nM siRNA (0.8 pmol per well)
Duration: 120 h (drug added 48 h after transfection, read 72 h later)
Conditions: camptothecin 20 nM (about EC30) for 72 h; vehicle 0.1% DMSO in parallel plates
Measurement: 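Cell viability by ATP luminescence (CellTiter-Glo) as % of non-targeting siRNA wells, and the log2 ratio of viability without drug over viability with camptothecin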
Scale: log2 vehicle/camptothecin viability: higher = stronger sensitisation to camptothecin; viability with camptothecin and viability without drug: higher = more viable cells
Rule for the call: 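Active genes have an RSA gene-level p-value below 0.001, computed from the ratios of their separate siRNAs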

no.	Gene	reagent no.	log2 vehicle/camptothecin viability	viability with camptothecin (% of control)	viability without drug (% of control)	call
1	RAB2A (RAB2A, member RAS oncogene family)	1	0.208	43.8	50.6	inactive
2	RAB2A (RAB2A, member RAS oncogene family)	2	0.251	66.9	79.5	inactive
3	RAB2A (RAB2A, member RAS oncogene family)	3	0.0563	94.4	98.1	inactive
4	RAB2A (RAB2A, member RAS oncogene family)	4	0.135	69.5	76.3	inactive
5	P2RX7 (purinergic receptor P2X 7)	1	-0.0153	94.8	93.8	inactive
6	P2RX7 (purinergic receptor P2X 7)	2	-0.545	81.3	55.7	inactive
7	P2RX7 (purinergic receptor P2X 7)	3	0.0328	74.1	75.8	inactive
8	ERG (ETS transcription factor ERG)	1	0.0918	70.7	75.4	inactive
9	ERG (ETS transcription factor ERG)	2	0.773	47.1	80.5	inactive
10	ERG (ETS transcription factor ERG)	3	-1.05	55.1	26.6	inactive
11	ERG (ETS transcription factor ERG)	4	0.00419	82.5	82.8	inactive
12	VDR (vitamin D receptor)	1	-0.463	43.8	31.8	inactive
13	VDR (vitamin D receptor)	2	-0.565	57.4	38.8	inactive
14	VDR (vitamin D receptor)	3	-0.256	87.8	73.6	inactive
15	VDR (vitamin D receptor)	4	0.175	71.3	80.5	inactive
16	ASB14 (ankyrin repeat and SOCS box containing 14)	1	0.305	49.6	61.2	inactive
17	ASB14 (ankyrin repeat and SOCS box containing 14)	2	-0.585	38.3	25.6	inactive
18	ASB14 (ankyrin repeat and SOCS box containing 14)	3	-0.296	118	96.2	inactive
19	MBD4 (methyl-CpG binding domain 4, DNA glycosylase)	1	-0.165	110	98.1	inactive
20	MBD4 (methyl-CpG binding domain 4, DNA glycosylase)	2	0.716	40.5	66.4	inactive
21	MBD4 (methyl-CpG binding domain 4, DNA glycosylase)	3	0.409	69.9	92.9	inactive
22	FBXO9 (F-box protein 9)	1	0.0678	70.9	74.4	inactive
23	FBXO9 (F-box protein 9)	2	-0.208	117	101	inactive
24	FBXO9 (F-box protein 9)	3	-0.113	44.4	41.1	inactive
25	FBXO9 (F-box protein 9)	4	-0.39	90.8	69.3	inactive
26	RNF145 (ring finger protein 145)	1	-0.348	25.8	20.3	inactive
27	RNF145 (ring finger protein 145)	2	-0.407	81.8	61.7	inactive
28	RNF145 (ring finger protein 145)	3	0.806	21.8	38.1	inactive
29	RNF145 (ring finger protein 145)	4	-0.166	55.8	49.7	inactive
30	BMP6 (bone morphogenetic protein 6)	1	-0.232	109	92.9	inactive
31	BMP6 (bone morphogenetic protein 6)	2	-0.32	64.3	51.5	inactive
32	BMP6 (bone morphogenetic protein 6)	3	0.0944	71.2	76.1	inactive
33	TK1 (thymidine kinase 1)	1	-0.154	17.4	15.7	inactive
34	TK1 (thymidine kinase 1)	2	-0.01	39	38.7	inactive
35	TK1 (thymidine kinase 1)	3	0.0885	84.4	89.8	inactive
36	TK1 (thymidine kinase 1)	4	-0.176	72.3	64	inactive
37	MALRD1 (MAM and LDL receptor class A domain containing 1)	1	-0.325	112	89.5	inactive
38	MALRD1 (MAM and LDL receptor class A domain containing 1)	2	-0.259	68	56.8	inactive
39	MALRD1 (MAM and LDL receptor class A domain containing 1)	3	-0.0833	108	102	inactive
40	PCDHB16 (protocadherin beta 16)	1	0.444	46.7	63.4	inactive
41	PCDHB16 (protocadherin beta 16)	2	-0.0616	74.2	71.1	inactive
42	PCDHB16 (protocadherin beta 16)	3	-0.0771	101	95.5	inactive
43	PCDHB16 (protocadherin beta 16)	4	-0.583	81.6	54.5	inactive
44	SENP3 (SUMO specific peptidase 3)	1	0.203	94.9	109	inactive
45	SENP3 (SUMO specific peptidase 3)	2	-0.214	69.3	59.7	inactive
46	SENP3 (SUMO specific peptidase 3)	3	0.296	48.4	59.4	inactive
47	CCR7 (C-C motif chemokine receptor 7)	1	-0.648	105	67.1	inactive
48	CCR7 (C-C motif chemokine receptor 7)	2	-0.369	114	88.6	inactive
49	CCR7 (C-C motif chemokine receptor 7)	3	-0.182	82.2	72.5	inactive
50	CCR7 (C-C motif chemokine receptor 7)	4	-0.246	96.7	81.6	inactive
51	CASK (calcium/calmodulin dependent serine protein kinase)	1	-0.107	74.4	69.1	inactive
52	CASK (calcium/calmodulin dependent serine protein kinase)	2	-0.129	68.5	62.6	inactive
53	CASK (calcium/calmodulin dependent serine protein kinase)	3	0.166	66.5	74.6	inactive
54	CASK (calcium/calmodulin dependent serine protein kinase)	4	0.896	4.15	7.73	inactive
55	FGF6 (fibroblast growth factor 6)	1	-0.1	110	103	inactive
56	FGF6 (fibroblast growth factor 6)	2	0.952	26.6	51.4	inactive
57	FGF6 (fibroblast growth factor 6)	3	-0.016	101	100	inactive
58	FGF6 (fibroblast growth factor 6)	4	-0.0528	98.4	94.8	inactive
59	CELSR1 (cadherin EGF LAG seven-pass G-type receptor 1)	1	-0.064	82.4	78.8	inactive
60	CELSR1 (cadherin EGF LAG seven-pass G-type receptor 1)	2	-0.255	65.9	55.3	inactive
61	CELSR1 (cadherin EGF LAG seven-pass G-type receptor 1)	3	-0.329	55	43.8	inactive
62	CELSR1 (cadherin EGF LAG seven-pass G-type receptor 1)	4	-0.441	102	75.1	inactive
63	MAP3K8 (mitogen-activated protein kinase kinase kinase 8)	1	-0.497	92.2	65.4	inactive
64	MAP3K8 (mitogen-activated protein kinase kinase kinase 8)	2	0.123	65.7	71.6	inactive
65	MAP3K8 (mitogen-activated protein kinase kinase kinase 8)	3	-0.136	32.2	29.3	inactive
66	MAP3K8 (mitogen-activated protein kinase kinase kinase 8)	4	-0.111	103	95.6	inactive
67	CLEC4M (C-type lectin domain family 4 member M)	1	-0.371	77.9	60.3	inactive
68	CLEC4M (C-type lectin domain family 4 member M)	2	-0.0272	82.7	81.2	inactive
69	CLEC4M (C-type lectin domain family 4 member M)	3	-0.288	62.9	51.5	inactive
70	CLEC4M (C-type lectin domain family 4 member M)	4	0.324	41.6	52.1	inactive
71	ABCF2 (ATP binding cassette subfamily F member 2)	1	0.26	79.8	95.5	inactive
72	ABCF2 (ATP binding cassette subfamily F member 2)	2	0.105	86.1	92.6	inactive
73	ABCF2 (ATP binding cassette subfamily F member 2)	3	0.315	34.2	42.6	inactive
74	ABCF2 (ATP binding cassette subfamily F member 2)	4	-0.362	74.9	58.3	inactive
75	GJA8 (gap junction protein alpha 8)	1	-0.0049	72.3	72	inactive
76	GJA8 (gap junction protein alpha 8)	2	-0.768	46.8	27.5	inactive
77	GJA8 (gap junction protein alpha 8)	3	-0.0879	48.3	45.5	inactive
78	GJA8 (gap junction protein alpha 8)	4	-0.523	69.9	48.6	inactive
79	GSTM1 (glutathione S-transferase mu 1)	1	-0.0178	87.9	86.8	inactive
80	GSTM1 (glutathione S-transferase mu 1)	2	0.764	17.2	29.3	inactive
81	GSTM1 (glutathione S-transferase mu 1)	3	0.0449	65	67.1	inactive
82	GSTM1 (glutathione S-transferase mu 1)	4	0.201	74.2	85.3	inactive
83	ENPEP (glutamyl aminopeptidase)	1	-0.0417	110	107	inactive
84	ENPEP (glutamyl aminopeptidase)	2	0.479	61.6	85.8	inactive
85	ENPEP (glutamyl aminopeptidase)	3	-0.433	107	79.4	inactive
86	ENPEP (glutamyl aminopeptidase)	4	-0.0758	103	97.5	inactive
87	AP2M1 (adaptor related protein complex 2 subunit mu 1)	1	-0.339	53.4	42.2	inactive
88	AP2M1 (adaptor related protein complex 2 subunit mu 1)	2	-0.293	56.9	46.4	inactive
89	AP2M1 (adaptor related protein complex 2 subunit mu 1)	3	-0.159	64.8	58.1	inactive

Single entries from above.
Entry of MBD4 (methyl-CpG binding domain 4, DNA glycosylase) #1 in “viability with camptothecin (% of control)”: 110
For “viability without drug (% of control)”, MAP3K8 (mitogen-activated protein kinase kinase kinase 8) #2 reads 71.6
For “viability with camptothecin (% of control)”, PCDHB16 (protocadherin beta 16) #2 shows 74.2
For “call”, ENPEP (glutamyl aminopeptidase) #4 is entered as inactive
MALRD1 (MAM and LDL receptor class A domain containing 1) #2, call: inactive
Under “viability without drug (% of control)”, TK1 (thymidine kinase 1) #2 is entered as 38.7
